Assay results: PubChem BioAssay AID2685 (National Center for Advancing Translational Sciences (NCATS), 2010)
Some of the results follow. Shown are side measurements of this screen, not its main read-out; they come without a call. Compounds called inactive in the main read-out are mostly missing here. Words in brackets tell the shape of the fitted curve; partial curves, single points and poor fits give uncertain potencies.

Test: qHTS Assay for Lipid Storage Modulators in Drosophila S3 Cells;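 for cell number change: cells counted by Cell Tracker Red CMTPX staining in the red channel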
Details: BODIPY lipid droplet fluorescence, 18-24 h; for cell number change: measured here: cell count max response, cells fed with added oleic acid
In short: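 Drosophila S3 cells got compounds at several concentrations plus oleic acid (400 uM solution). Laser-scanning cytometry with 488 nm excitation read lipid droplets at 500-530 nm and cells at 575-640 nm. Percent activity was relative to 20 uM Triacsin C.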

[1] = measured here: cell number channel AC50, cells fed with added oleic acid
[2] = measured here: lipid fluorescence (Fed channel) AC50, cells fed with added oleic acid

**Q.** For `Oc1ccc(-c2csc(-c3ccccc3)n2)cc1O`, which cell number change is on record?
**A.** Its cell number change is -40.4%.

**Q.** And the AC50 [1]?
**A.** The AC50 was 23.1 µM [falling, partial curve].

**Q.** What about the AC50 [2] of the same molecule?
**A.** The AC50 was 2.59 µM [falling, partial curve, poor fit].

**Q.** With `Cc1cc(N2CCN(c3ccc(F)cc3)CC2)n2ncnc2n1` as the molecule, how does the cell number change read?
**A.** Its cell number change is 13%.

**Q.** And the AC50 [2]?
**A.** The AC50 was 10.3 µM [rising, partial curve].

**Q.** Which cell number change does the source give for `Cc1ccc(C(C)C)c(OCC(=O)OCC(=O)c2c(N)n(C)c(=O)n(C)c2=O)c1` here?
**A.** The cell number change was -21.8%.

**Q.** And the AC50 [2]?
**A.** Its AC50 is 10.3 µM [falling, partial curve, poor fit].

**Q.** With `Cc1ccccc1OCC(=O)Nc1sc2c(c1C#N)CCC2` as the molecule, how does the AC50 [2] read?
**A.** The AC50 was 2.91 µM [rising, single point].

**Q.** Which results are given for `CC1Cc2nc(SCC(=O)N3CCOCC3)n(C)c(=O)c2S1` (stereo not drawn)?
**A.** cell number change: 19.4%; AC50 [2]: 29.1 µM [rising, single point]

**Q.** Which results are given for `Cc1ccc(NC(=O)c2sc3nc(CCl)[nH]c(=O)c3c2C)c(C)c1`?
**A.** cell number change: 28%; AC50 [1]: 0.082 µM [rising, full curve, poor fit]; AC50 [2]: 0.058 µM [rising, full curve, poor fit]

**Q.** Which cell number change does the source give for `O=c1oc2cc(OCc3ccc(F)cc3F)ccc2cc1-c1ccc2ccccc2n1` here?
**A.** The cell number change was 36.6%.

**Q.** What about the AC50 [1] of the same molecule?
**A.** Its AC50 is 14.6 µM [rising, partial curve, poor fit].

**Q.** What about the AC50 [2] of the same molecule?
**A.** The AC50 was 23.1 µM [rising, partial curve, poor fit].

**Q.** Which cell number change does the source give for `Cc1cc(C)nc(NS(=O)(=O)c2ccc(NC(=O)CSc3ncn[nH]3)cc2)n1` here?
**A.** Its cell number change is 3.82%.

**Q.** What about the AC50 [2] of the same molecule?
**A.** The AC50 was 4.11 µM [rising, single point].

**Q.** For `O=C(CCn1c(SCC(=O)c2ccccc2)nc2ccccc2c1=O)NCc1ccc(F)cc1`, which cell number change is on record?
**A.** Its cell number change is 12.1%.

**Q.** With `COc1ccc(CCNc2nnc(Sc3nnnn3-c3ccccc3)s2)cc1OC` as the molecule, how does the AC50 [2] read?
**A.** The AC50 was 29.1 µM [falling, single point].

**Q.** For `Cc1cccc(N2CCN(C(=O)CCS(=O)(=O)c3ccc4c(c3)NC(=O)CO4)CC2)c1C`, which cell number change is on record?
**A.** The cell number change was 20.6%.

**Q.** And the AC50 [1]?
**A.** Its AC50 is 0.82 µM [rising, full curve, poor fit].

**Q.** With `CC(C)CN(C(=O)c1ccco1)c1nc2ccccc2s1` as the molecule, how does the cell number change read?
**A.** Its cell number change is -103%.

**Q.** And the AC50 [1]?
**A.** The AC50 was 29.1 µM [falling, single point].

**Q.** And the AC50 [2]?
**A.** Its AC50 is 29.1 µM [falling, single point].

**Q.** For `O=[N+]([O-])c1ccc(N2CCN(C(=S)c3cccc([N+](=O)[O-])c3)CC2)cc1`, which cell number change is on record?
**A.** Its cell number change is -5.26%.

**Q.** And the AC50 [2]?
**A.** Its AC50 is 16.4 µM [rising, single point].

**Q.** What does the source list for `Cc1ccc(Cl)cc1NC(=O)c1ccc(CSc2nnnn2C)cc1`?
**A.** AC50 [1]: 0.0164 µM [rising, full curve]; AC50 [2]: 0.731 µM [rising, partial curve, poor fit]

**Q.** With `COc1ccc([N+](=O)[O-])cc1NC(=O)C(C)OC(=O)CN1C(=O)C2CC=CCC2C1=O` (stereo not drawn) as the molecule, how does the cell number change read?
**A.** Its cell number change is -4.42%.

**Q.** For `CC1C=CCC2C(=O)N(c3ccc(Cl)cc3O)C(=O)C12` (stereo not drawn), which cell number change is on record?
**A.** Its cell number change is -11.9%.

**Q.** What about the AC50 [2] of the same molecule?
**A.** The AC50 was 29.1 µM [falling, single point].

**Q.** Which cell number change does the source give for `N#C/C(=C\c1ccc(O)c(O)c1)C(=O)Nc1ccccc1` here?
**A.** The cell number change was -12.9%.

**Q.** What about the AC50 [2] of the same molecule?
**A.** Its AC50 is 14.6 µM [falling, partial curve, poor fit].

**Q.** Which cell number change does the source give for `Cc1ccccc1NC(=O)COc1nsnc1N1CCOCC1` here?
**A.** The cell number change was 7.99%.

**Q.** For `Cc1ccc(C(=O)Nc2ccc(C(=O)N/N=C/c3ccccn3)cc2)cc1`, which cell number change is on record?
**A.** Its cell number change is 40.4%.

**Q.** What about the AC50 [1] of the same molecule?
**A.** The AC50 was 16.4 µM [rising, partial curve, poor fit].

**Q.** For `CCn1c(CNC(=O)Cc2ccc(OC)cc2)nnc1SCC(=O)NC1CCCCC1`, which cell number change is on record?
**A.** Its cell number change is -17.8%.

**Q.** And the AC50 [2]?
**A.** The AC50 was 0.146 µM [falling, full curve].

**Q.** With `CC(=O)Nc1ccc(-c2nnc(SCc3ccccc3C#N)n2C)cc1` as the molecule, how does the cell number change read?
**A.** The cell number change was 20.4%.

**Q.** And the AC50 [2]?
**A.** Its AC50 is 23.1 µM [rising, partial curve].

**Q.** With `Cc1ccc(C)c(CSc2nnc(-c3cccnc3)o2)c1` as the molecule, how does the cell number change read?
**A.** Its cell number change is -8.34%.

**Q.** What about the AC50 [2] of the same molecule?
**A.** Its AC50 is 0.461 µM [rising, full curve, poor fit].

**Q.** Which results are given for `CCn1ncc(C2=NOC(C(=O)Nc3cccc(C(C)=O)c3)C2)c1C` (stereo not drawn)?
**A.** cell number change: -14.8%; AC50 [1]: 3.66 µM [falling, single point]; AC50 [2]: 4.11 µM [falling, single point]

**Q.** For `C/C(=N\NC(=S)NC(C)C)c1ccc(C(C)(C)C)cc1`, which cell number change is on record?
**A.** Its cell number change is -35%.

**Q.** What about the AC50 [1] of the same molecule?
**A.** The AC50 was 29.1 µM [falling, single point].

**Q.** With `Cc1ccc(Cn2c(=O)oc3ccccc32)cc1` as the molecule, how does the AC50 [1] read?
**A.** Its AC50 is 5.8 µM [rising, partial curve].

**Q.** For `O=C(NCCCCCNC(=O)c1ccco1)c1ccco1`, which AC50 [2] is on record?
**A.** The AC50 was 3.26 µM [falling, partial curve, poor fit].

**Q.** For `O=C(Cc1c[nH]c2ccccc12)N1CCc2ccccc21`, which AC50 [1] is on record?
**A.** The AC50 was 1.16 µM [rising, full curve].

**Q.** Which results are given for `COC(=O)[C@H](Cc1ccccc1)NC(=O)N1CC(C)OC(C)C1` (stereo partly drawn)?
**A.** cell number change: -55.9%; AC50 [1]: 29.1 µM [falling, single point]; AC50 [2]: 1.3 µM [falling, full curve]

**Q.** Which cell number change does the source give for `O=C(O)c1cccn1Cc1ccccc1F` here?
**A.** Its cell number change is -34.3%.

**Q.** Which cell number change does the source give for `O=C(COC(=O)c1cccc(Br)c1)NCCc1ccc(F)cc1` here?
**A.** The cell number change was -7.68%.

**Q.** What about the AC50 [2] of the same molecule?
**A.** The AC50 was 18.4 µM [rising, partial curve].

**Q.** What does the source list for `O=C(CCCN1C(=O)c2cccc3cccc(c23)C1=O)N1CCN(c2ncccn2)CC1`?
**A.** cell number change: -10.5%; AC50 [2]: 29.1 µM [falling, single point]

**Q.** For `O=C(NCC1CCCO1)c1ccc(CNS(=O)(=O)c2cccc(Cl)c2)cc1` (stereo not drawn), which cell number change is on record?
**A.** The cell number change was 15.2%.

**Q.** With `COc1ccc(NC(=O)c2cc3c(=O)n(C)c4ccccc4c3n2C)cc1Cl` as the molecule, how does the AC50 [2] read?
**A.** The AC50 was 0.164 µM [rising, full curve, poor fit].

**Q.** With `COc1ccc2[nH]cc(CCNC(=S)NC3CCCC3)c2c1` as the molecule, how does the cell number change read?
**A.** The cell number change was -1.85%.

**Q.** What about the AC50 [1] of the same molecule?
**A.** The AC50 was 6.51 µM [falling, single point].

**Q.** What about the AC50 [2] of the same molecule?
**A.** The AC50 was 0.461 µM [falling, full curve].

**Q.** For `O=C(CN1C(=O)C2C3C=CC(C3)C2C1=O)OCC(=O)c1ccccc1` (stereo not drawn), which cell number change is on record?
**A.** The cell number change was -7.66%.

**Q.** What does the source list for `COCc1nnc(NS(=O)(=O)c2ccc(Cl)cc2)s1`?
**A.** cell number change: 31.2%; AC50 [2]: 29.1 µM [rising, single point]

**Q.** Which results are given for `COc1ccccc1NC(=O)Cn1cnc2c(oc3ccccc32)c1=O`?
**A.** cell number change: 29.7%; AC50 [2]: 6.51 µM [rising, partial curve]

**Q.** With `COC(=O)c1ccc(COc2ccccc2/C=N/Nc2cccc(C(=O)O)c2)cc1` as the molecule, how does the cell number change read?
**A.** The cell number change was 24.4%.

**Q.** What about the AC50 [2] of the same molecule?
**A.** Its AC50 is 2.06 µM [rising, single point].

**Q.** For `O=C(COC(=O)c1ccc(S(=O)(=O)NCc2ccco2)cc1)Nc1ccccc1`, which cell number change is on record?
**A.** The cell number change was -14.3%.

**Q.** And the AC50 [2]?
**A.** Its AC50 is 23.1 µM [rising, partial curve].
